Results are given in words; binding and its absence hold for the method and conditions named. In cells and extracts the contact can be indirect. Binding can be weak; no strength is given.
Target: T1, Guanine nucleotide exchange factor-H1 (GEF-H1) (mouse (endogenous in BMDCs)) (UniProt Q60875)
T1 sequence: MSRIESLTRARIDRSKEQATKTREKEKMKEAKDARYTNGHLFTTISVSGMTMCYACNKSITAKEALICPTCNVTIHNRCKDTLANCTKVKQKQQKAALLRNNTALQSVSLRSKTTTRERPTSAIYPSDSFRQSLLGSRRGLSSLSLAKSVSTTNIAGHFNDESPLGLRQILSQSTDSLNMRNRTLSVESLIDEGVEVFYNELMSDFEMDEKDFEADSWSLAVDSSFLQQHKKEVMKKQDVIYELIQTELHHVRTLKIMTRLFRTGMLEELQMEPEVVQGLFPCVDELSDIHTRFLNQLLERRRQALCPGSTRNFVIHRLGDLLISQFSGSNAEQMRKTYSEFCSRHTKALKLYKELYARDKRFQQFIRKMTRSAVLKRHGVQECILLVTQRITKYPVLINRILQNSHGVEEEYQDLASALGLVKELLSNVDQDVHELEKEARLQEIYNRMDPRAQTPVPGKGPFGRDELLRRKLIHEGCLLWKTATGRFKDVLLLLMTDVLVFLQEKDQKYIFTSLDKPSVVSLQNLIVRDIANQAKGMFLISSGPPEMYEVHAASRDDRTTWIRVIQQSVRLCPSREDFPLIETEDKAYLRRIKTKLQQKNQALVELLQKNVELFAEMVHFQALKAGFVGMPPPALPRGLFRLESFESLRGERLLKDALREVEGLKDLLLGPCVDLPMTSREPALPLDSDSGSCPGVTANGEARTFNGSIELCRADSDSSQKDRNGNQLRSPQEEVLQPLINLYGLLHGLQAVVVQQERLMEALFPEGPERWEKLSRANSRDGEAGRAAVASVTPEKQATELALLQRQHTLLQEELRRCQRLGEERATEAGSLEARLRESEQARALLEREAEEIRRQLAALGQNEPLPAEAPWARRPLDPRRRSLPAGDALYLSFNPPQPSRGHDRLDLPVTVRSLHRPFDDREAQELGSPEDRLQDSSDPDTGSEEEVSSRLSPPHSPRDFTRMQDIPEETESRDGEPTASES
Test: co-IP; anti-GEFH1 immunoprecipitation from NP-40 lysates of WT BMDCs treated with ansamitocin-P3 or taxane (100 nM) for the indicated times; blot for α-tubulin

binding: binds
Substance: α-tubulin (mouse (endogenous in BMDCs))

From article PMC6876861
